For this assay, the target named is AKT serine/threonine kinase 1 (human (endogenous in Huh7)) (UniProt P31749). The assay is described as follows: co-IP; cell lysate (500 uL) pre-cleared, incubated overnight at 4 °C with protein A and G agarose beads and 5 ug indicated antibody; beads washed 3 times; western blot; Huh7 / HCC cells. In general terms: Immunoblotting shows a protein as a band on a membrane.

The chains behind the UniProt entries cited, without tags or fusion partners.
UniProt P31749: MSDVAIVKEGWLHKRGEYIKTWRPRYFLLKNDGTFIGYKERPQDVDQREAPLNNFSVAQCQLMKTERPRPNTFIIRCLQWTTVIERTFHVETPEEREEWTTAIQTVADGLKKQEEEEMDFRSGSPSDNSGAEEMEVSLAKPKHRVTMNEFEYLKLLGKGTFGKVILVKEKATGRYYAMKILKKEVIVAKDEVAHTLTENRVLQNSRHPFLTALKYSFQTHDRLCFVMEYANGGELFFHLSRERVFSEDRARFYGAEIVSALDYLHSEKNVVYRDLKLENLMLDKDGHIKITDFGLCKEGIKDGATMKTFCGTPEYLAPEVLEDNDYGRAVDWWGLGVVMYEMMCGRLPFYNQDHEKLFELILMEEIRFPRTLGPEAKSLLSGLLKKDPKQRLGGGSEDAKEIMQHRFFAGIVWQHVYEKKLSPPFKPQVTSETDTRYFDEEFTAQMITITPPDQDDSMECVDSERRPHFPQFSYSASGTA

Results are given in words; binding and its absence hold for the method and conditions named. Binding seen in cells or lysates may run through a third protein. Some entries that bind do so weakly or less than the wild type.

B1: farnesyl-diphosphate farnesyltransferase 1 (protein, UniProt P37268 1-417)
chain: MEFVKCLGHPEEFYNLVRFRIGGKRKVMPKMDQDSLSSSLKTCYKYLNQTSRSFAAVIQALDGEMRNAVCIFYLVLRALDTLEDDMTISVEKKVPLLHNFHSFLYQPDWRFMESKEKDRQVLEDFPTISLEFRNLAEKYQTVIADICRRMGIGMAEFLDKHVTSEQEWDKYCHYVAGLVGIGLSRLFSASEFEDPLVGEDTERANSMGLFLQKTNIIRDYLEDQQGGREFWPQEVWSRYVKKLGDFAKPENIDLAVQCLNELITNALHHIPDVITYLSRLRNQSVFNFCAIPQVMAIATLAACYNNQQVFKGAVKIRKGQAVTLMMDATNMPAVKAIIYQYMEEIYHRIPDSDPSSSKTRQIISTIRTQNLPNCQLISRSHYSPIYLSFVMLLAALSWQYLTTLSQVTEDYVQTGEH
As to B1, the binding entry was “no binding”.

B2: aldolase B (protein, UniProt P05062 1-364)
chain: MAHRFPALTQEQKKELSEIAQSIVANGKGILAADESVGTMGNRLQRIKVENTEENRRQFREILFSVDSSINQSIGGVILFHETLYQKDSQGKLFRNILKEKGIVVGIKLDQGGAPLAGTNKETTIQGLDGLSERCAQYKKDGVDFGKWRAVLRIADQCPSSLAIQENANALARYASICQQNGLVPIVEPEVIPDGDHDLEHCQYVTEKVLAAVYKALNDHHVYLEGTLLKPNMVTAGHACTKKYTPEQVAMATVTALHRTVPAAVPGICFLSGGMSEEDATLNLNAINLCPLPKPWKLSFSYGRALQASALAAWGGKAANKEATQEAFMKRAMANCQAAKGQYVHTGSSGAASTQSLFTACYTY
Take B2: the binding result was “binds”.

Source of the values: publication PMC11948044.
